For this test, the system named is Salmonella enterica serovar Typhimurium SL1344. As to the kind of experiment: bacterial growth OD600 after 18 h with compound and polymyxin B; higher = more bacterial growth (less inhibition). The settings on record: 50 µM, Mueller-Hinton broth.

SMILES strings stand for the structures. The list shows a part of the results. These are raw signals, not scaled to a control.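 In the initial screen, polymyxin B was used at a concentration that permeabilizes Salmonella's outer membrane but not its inner membrane. Maximum growth was set by DMSO wells with or without polymyxin B. Since plates varied, data were ranked per plate, and compounds giving the lowest OD600 advanced as hits.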

On to `O=C(CC1C(=O)NCCN1Cc1cccc(F)c1F)NCCCc1ccccc1` (stereo unspecified), for which the “bacterial growth OD600” value (polymyxin B 1 µg/mL) came to 0.808.

As to `COc1ccc(F)c(CN2CCOc3ccc(C(C)(O)COc4ccccc4)cc3C2)c1` (stereo unspecified), the “bacterial growth OD600” value (polymyxin B 0.75 µg/mL) was 0.791.

Regarding `CSc1ncc(CNCC2(N3CCCCC3)Cc3ccccc3C2)cn1`, for the setting “polymyxin B 0.75 µg/mL”, the “bacterial growth OD600” value was 0.806. With `Cc1oc(-c2ccc(NC(=O)Cc3ccccc3)cc2)nc1CNC(=O)c1cc(C(C)C)n[nH]1`, the “bacterial growth OD600” value (polymyxin B 0.75 µg/mL) is 0.837. Same read-out and setting: in the case of `COc1cccc(CC2(CCC(=O)NCCCc3ccccc3)CCC(=O)N2)c1` (stereo unspecified) it was 0.875; in that of `CCOC(=O)C1CCCCN1C(=O)CSc1ccc2nnc(-c3cccnc3)n2n1` (stereo unspecified), 0.858; in that of `Cn1cc(CN2CCCC(CCc3c(F)cccc3F)C2)cn1` (stereo unspecified), 0.677. The same measure, in the same setting: in the case of `CCOC(=O)N1CCC(NC2CCN(c3ccc(NC(=O)CCc4ccccc4)cc3)CC2)CC1` it was 0.861.

For the compound `CSCCC(=O)N1CCCCC1C(=O)Nc1ccc(-n2nc(C)cc2C)cc1` (stereo unspecified), the “bacterial growth OD600” value (polymyxin B 1 µg/mL) came out at 0.945.

As for `Cc1cccc(-c2cccc(NC(=O)C3CCCN3C(=O)c3cn[nH]c3)c2)c1` (stereo unspecified), the “bacterial growth OD600” value (polymyxin B 0.75 µg/mL) was 0.457. With `Cc1ocnc1C(=O)NC1CC(=O)N(Cc2ccccc2C(F)(F)F)C1` (stereo unspecified), the “bacterial growth OD600” value (polymyxin B 1 µg/mL) came out at 1.09. For `Cc1ncsc1CCC(=O)N1CCOc2ccc(CN3CCC(Oc4cccnc4)CC3)cc2C1`, the “bacterial growth OD600” value (polymyxin B 0.75 µg/mL) worked out at 0.852. For the compound `COCCNC(=O)c1cccc(OC2CCN(Cc3ccc(OC)cc3OC)CC2)c1`, the “bacterial growth OD600” value (polymyxin B 1 µg/mL) was 0.954. Consider `CO[C@H]1[C@H](NC(=O)Cc2cccs2)c2ccccc2C12CCN(Cc1cccc3cccnc13)CC2`, for which the “bacterial growth OD600” value (polymyxin B 0.75 µg/mL) stood at 0.909.

Consider `O=C(c1cc(Cl)ccc1OC1CCN(C2CCCC2)CC1)N1CCSCC1`, for which the “bacterial growth OD600” value (polymyxin B 1 µg/mL) is 0.943. Still for that read-out and setting: in the case of `c1ccc(CNc2nc3nonc3nc2NC2CC2)cc1` it was 0.968.

For `Cc1ccc(-c2cnnc(NCc3n[nH]c4c3CCCCC4)n2)o1`, the “bacterial growth OD600” value (polymyxin B 0.75 µg/mL) came out at 0.839. Consider `Cc1nc(C(C)NC(=O)c2cc(COc3ccccc3)[nH]n2)cs1` (stereo unspecified), for which the “bacterial growth OD600” value (polymyxin B 1 µg/mL) was found to be 0.923.

`O=C(CCc1c[nH]c2ccccc12)NCCN1Cc2ccccc2OC(c2ccccc2)C1` (stereo unspecified): the “bacterial growth OD600” value (polymyxin B 0.75 µg/mL) is 0.785. Consider `CN(Cc1cccc2cnccc12)C(=O)Cn1nnnc1CN1CCCC1`, for which the “bacterial growth OD600” value (polymyxin B 0.75 µg/mL) stood at 0.871. With `CCOC(=O)CC1CCCCN1Cc1nc(-c2cccc(OC)c2OC)oc1C` (stereo unspecified), for the setting “polymyxin B 0.75 µg/mL”, the “bacterial growth OD600” value stood at 0.786.

(Values after the supplement of paper PMC12889115.)
